# PubChem BioAssay (NCATS)
# By UniProt entry, the sequences of proteins in these tests, tags left out. Where a name states a change or a piece, a line headed by the entry shows the natural chain unless it says otherwise.
# UniProt P37231: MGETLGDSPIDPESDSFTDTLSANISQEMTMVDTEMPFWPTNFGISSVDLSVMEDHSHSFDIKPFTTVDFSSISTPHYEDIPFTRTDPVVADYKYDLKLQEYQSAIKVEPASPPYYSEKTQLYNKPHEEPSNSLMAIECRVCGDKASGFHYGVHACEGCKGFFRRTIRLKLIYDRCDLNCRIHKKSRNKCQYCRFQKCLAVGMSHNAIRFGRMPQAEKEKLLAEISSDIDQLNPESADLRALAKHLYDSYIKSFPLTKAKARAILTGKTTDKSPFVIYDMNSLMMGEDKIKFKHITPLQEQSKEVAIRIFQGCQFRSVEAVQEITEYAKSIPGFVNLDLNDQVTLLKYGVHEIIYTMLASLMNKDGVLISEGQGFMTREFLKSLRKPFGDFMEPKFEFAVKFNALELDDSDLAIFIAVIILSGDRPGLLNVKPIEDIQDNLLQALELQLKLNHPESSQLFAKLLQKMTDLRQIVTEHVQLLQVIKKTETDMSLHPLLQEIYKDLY
# UniProt P01375, whole entry, looked up: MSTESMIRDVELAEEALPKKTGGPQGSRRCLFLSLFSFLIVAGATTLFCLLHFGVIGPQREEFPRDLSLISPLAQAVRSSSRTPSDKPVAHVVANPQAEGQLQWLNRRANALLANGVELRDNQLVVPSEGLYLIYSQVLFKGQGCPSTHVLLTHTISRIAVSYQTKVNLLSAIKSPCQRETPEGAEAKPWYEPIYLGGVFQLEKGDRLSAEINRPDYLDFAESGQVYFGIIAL
# UniProt Q12809: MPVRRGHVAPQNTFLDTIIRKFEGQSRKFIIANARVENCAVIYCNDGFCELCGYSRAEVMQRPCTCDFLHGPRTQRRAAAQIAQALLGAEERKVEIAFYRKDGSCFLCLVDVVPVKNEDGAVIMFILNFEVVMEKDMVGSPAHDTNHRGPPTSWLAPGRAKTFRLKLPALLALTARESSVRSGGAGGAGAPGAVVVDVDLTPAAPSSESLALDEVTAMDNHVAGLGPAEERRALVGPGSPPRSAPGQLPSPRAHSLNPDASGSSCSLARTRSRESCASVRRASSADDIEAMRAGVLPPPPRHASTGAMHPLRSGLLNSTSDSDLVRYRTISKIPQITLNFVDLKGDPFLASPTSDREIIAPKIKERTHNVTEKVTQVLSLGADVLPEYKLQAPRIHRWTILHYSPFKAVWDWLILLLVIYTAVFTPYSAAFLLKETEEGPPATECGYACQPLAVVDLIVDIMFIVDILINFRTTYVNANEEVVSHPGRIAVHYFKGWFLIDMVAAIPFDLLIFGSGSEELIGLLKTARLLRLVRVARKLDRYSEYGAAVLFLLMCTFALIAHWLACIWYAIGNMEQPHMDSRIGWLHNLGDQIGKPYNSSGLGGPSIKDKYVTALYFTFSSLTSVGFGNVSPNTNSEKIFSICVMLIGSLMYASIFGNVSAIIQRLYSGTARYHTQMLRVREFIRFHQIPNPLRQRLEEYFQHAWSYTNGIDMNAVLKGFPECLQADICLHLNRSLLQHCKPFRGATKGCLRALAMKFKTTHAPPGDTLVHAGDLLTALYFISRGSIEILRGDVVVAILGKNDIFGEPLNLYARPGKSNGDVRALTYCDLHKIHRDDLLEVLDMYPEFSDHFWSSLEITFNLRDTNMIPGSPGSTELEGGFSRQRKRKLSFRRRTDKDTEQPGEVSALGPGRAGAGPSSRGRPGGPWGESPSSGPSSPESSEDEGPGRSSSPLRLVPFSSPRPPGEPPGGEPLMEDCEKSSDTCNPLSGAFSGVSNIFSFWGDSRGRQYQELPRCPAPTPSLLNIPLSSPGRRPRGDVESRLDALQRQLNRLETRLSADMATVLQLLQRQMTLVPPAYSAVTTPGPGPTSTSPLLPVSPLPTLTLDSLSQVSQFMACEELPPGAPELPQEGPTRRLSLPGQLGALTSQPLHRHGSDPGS
# UniProt Q9Y253: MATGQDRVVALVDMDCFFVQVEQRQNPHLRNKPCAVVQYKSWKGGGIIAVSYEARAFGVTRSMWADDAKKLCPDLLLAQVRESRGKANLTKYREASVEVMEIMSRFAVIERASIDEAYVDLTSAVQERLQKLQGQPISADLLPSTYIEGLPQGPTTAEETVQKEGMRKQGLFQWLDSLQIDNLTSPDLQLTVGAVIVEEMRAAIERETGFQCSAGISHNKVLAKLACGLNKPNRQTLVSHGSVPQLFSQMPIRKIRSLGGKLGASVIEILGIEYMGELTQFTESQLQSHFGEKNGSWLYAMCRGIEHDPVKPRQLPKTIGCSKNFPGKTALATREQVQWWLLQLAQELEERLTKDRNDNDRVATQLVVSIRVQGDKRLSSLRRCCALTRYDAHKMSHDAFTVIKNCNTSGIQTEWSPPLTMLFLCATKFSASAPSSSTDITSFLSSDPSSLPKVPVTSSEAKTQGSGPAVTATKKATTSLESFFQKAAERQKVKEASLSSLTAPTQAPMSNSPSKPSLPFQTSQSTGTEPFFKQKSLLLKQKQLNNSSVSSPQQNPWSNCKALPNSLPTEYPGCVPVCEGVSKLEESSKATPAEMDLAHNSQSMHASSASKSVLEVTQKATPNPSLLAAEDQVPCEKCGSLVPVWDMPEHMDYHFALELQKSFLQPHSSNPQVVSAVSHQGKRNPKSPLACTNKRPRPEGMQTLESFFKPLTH
# UniProt P15289: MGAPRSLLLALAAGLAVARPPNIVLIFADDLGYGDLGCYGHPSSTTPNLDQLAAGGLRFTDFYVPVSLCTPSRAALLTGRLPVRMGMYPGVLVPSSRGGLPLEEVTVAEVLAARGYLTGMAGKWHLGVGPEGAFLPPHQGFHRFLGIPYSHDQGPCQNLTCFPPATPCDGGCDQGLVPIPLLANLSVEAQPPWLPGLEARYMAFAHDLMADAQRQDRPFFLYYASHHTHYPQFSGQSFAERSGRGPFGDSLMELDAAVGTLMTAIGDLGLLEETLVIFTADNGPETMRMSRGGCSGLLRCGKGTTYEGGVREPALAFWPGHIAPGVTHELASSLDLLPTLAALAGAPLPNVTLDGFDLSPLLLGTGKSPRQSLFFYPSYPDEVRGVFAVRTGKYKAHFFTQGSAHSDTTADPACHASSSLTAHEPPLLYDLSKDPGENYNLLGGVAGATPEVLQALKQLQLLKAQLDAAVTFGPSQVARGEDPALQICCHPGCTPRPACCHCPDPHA
# “And” between values parts separate entries of the source, which are not always exact repeats. Identical values can stand only once. Inconclusive results, whose numbers are uncertain, are shown with a selection of clear calls. For some of these results: Where the call is inconclusive, the potency comes from a doubtful curve fit. For some of these results: “Side channel” marks fits to a control or component signal instead of the main read-out. The source made the active and inactive calls. Unless noted, the call rests on the fitted dose curve; in most records, active means well fitted curve in the direction sought with a large enough effect; inconclusive means small, poorly fitted or top-dose-only effect, or another doubt; inactive means no such curve, though single readings can be large; an effect the other way counts as inactive or inconclusive.
# Assays:
# [1] = Cell Viability - LYMP1-002 - Assay at 16 hr (AID 948); conditions: LYMP1-002 lymphoblastoid cell viability; further: potency means the concentration at half of the fitted maximal effect
# In short: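 Acute cytotoxicity is scored as a concentration-dependent fall in intracellular ATP in a human lymphoblastoid line (LYMP1-002) after 16 hr compound exposure at 37 C, measured by luciferase luminescence.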
# [2] = Cell Viability - LYMP2-004 (AID 966); conditions: LYMP2-004 lymphoblastoid cell viability, qHTS; activity change, negative = cytotoxicity: at 92.2 µM (top of the series); further: potency means the concentration at half of the fitted maximal effect; nearly all actives have a fitted effect of over 65% in size
# In short: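 Lymphoblastoid LYMP2-004 cells, 2500 per well, were preincubated for 5 hr and then treated with compound for 24 h at 37 C in complete medium. Viability was read as cellular ATP by CellTiter-Glo luminescence, and AC50 values were taken from Hill fits to concentration-response data.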
# [3] = Cell Viability - LYMP2-025 (AID 976); conditions: LYMP2-025 lymphoblastoid cell viability; activity change, negative = cytotoxicity: at 92.2 µM (top of the series); further: potency means the concentration at half of the fitted maximal effect
# In short: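 Human lymphoblastoid LYMP2-025 cells, 2500/well, exposed 24 h at 37 C in complete medium in 1536-well qHTS. Viability as cellular ATP by CellTiter-Glo luminescence; AC50 from Hill fits of concentration-response data.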
# [4] = Cell Viability - LYMP1-002 - Assay at 24 hr (AID 993); further: potency means the concentration at half of the fitted maximal effect
# In short: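 Human lymphoblastoid LYMP1-002 cells (2500/well) treated 24 h at 37 °C; viability as intracellular ATP by CellTiter-Glo luminescence. Tetraoctylammonium bromide as positive control; AC50 from Hill-equation fits of qHTS concentration-response.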
# [5] = Cell Viability - LYMP1-002 - Assay at 40 hr (AID 994); further: potency means the concentration at half of the fitted maximal effect; nearly all actives have a fitted effect of over 60% in size
# In short: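 LYMP1-002 human lymphoblastoid cells (2500/well, complete medium) were treated with compounds for 40 hr at 37 C. Intracellular ATP was measured by CellTiter-Glo luminescence, and AC50 values came from Hill-equation fits of concentration-response data; tetraoctylammonium bromide was the positive control.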
# [6] = biological target: Bile acid receptor (Homo sapiens) (UniProt Q96RI1); assay: qHTS assay for small molecule antagonists of farnesoid X receptor signaling (AID 588526; calls by dose curve; further: potency means the concentration at half of the fitted maximal effect; on activity change, negative = inhibition: on the % scale 0 is the no-effect control and ±100 the full control effect); conditions: HEK293T FXR-UAS-bla, beta-lactamase ratio, antagonist mode; activity change, negative = inhibition: at 76.7 µM (top of the series)
# In short: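 Concentration-response titrations were fitted to the Hill equation for half-maximal inhibition and maximal response, with data normalised to 50 uM chenodeoxycholic acid and DMSO control wells. Cells: FXR-UAS-bla HEK293T, dialyzed FBS.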
# [7] = qHTS assay for small molecule agonists of the antioxidant response element (ARE) signaling pathway measured by Nrf2-dependant transcriptional activity - cell viability counter screen (AID 720653; active means well fitted curve in the direction sought with a large enough effect in the repeat runs; inconclusive means weak or mixed curves; inactive means no such curve, though single readings can be large; an effect the other way counts as inactive or inconclusive; further: potency means the concentration at half of the fitted maximal effect; on max response: on the % scale 0 is the no-effect control and ±100 the full control effect); conditions: ARE-bla HepG2 viability, CellTiter-Glo ATP luminescence, 16 h; max response: stronger effect = lower value
# In short: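 ARE-bla HepG2 cells (2,000/well) rested 5 hrs at 37C/5% CO2, then exposed to compounds in DMSO for 16 hrs. Viability was read in the same wells as intracellular ATP by luminescence, 30 min at room temperature after reagent addition.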
# [8] = MultiTox-Fluor Cytotoxicity Assay - LYMP1-002 - Live Cells (AID 955); further: potency means the concentration at half of the fitted maximal effect
# In short: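 Human lymphoblastoid LYMP1-002 cells, 2500/well, treated 16 h at 37 C in complete medium. Live-cell protease activity via GF-AFC fluorescence (Ex/Em 405/510) after 60 min reagent incubation; AC50 from Hill fits.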
# [9] = MultiTox-Fluor Cytotoxicity Assay - LYMP1-003 - Live Cells (AID 962); conditions: LYMP1-003 lymphoblastoid cells, MultiTox-Fluor live-cell protease fluorescence; further: potency means the concentration at half of the fitted maximal effect
# In short: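 LYMP1-003 lymphoblastoid cells, 2500/well in complete medium, treated 16 h at 37 C; live-cell protease cleavage of GF-AFC read by fluorescence (Ex/Em 405/510) after 60 min reagent; AC50 from Hill fits of concentration-response.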
# [10] = Cell Viability - LYMP2-023 (AID 975); further: potency means the concentration at half of the fitted maximal effect; nearly all actives have a fitted effect of over 55% in size
# In short: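 LYMP2-023 human lymphoblastoid cells, 2500/well, preincubated 5 hr at 37 C, then compound-treated 24 hr at 37 C in complete medium. CellTiter-Glo luminescence (ATP) after 30 min at room temperature; AC50 from Hill-equation fits; tetraoctylammonium bromide positive control.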
# [11] = qHTS assay for small molecule activators of the nuclear factor-kappa B (NF-kB) signaling pathway (AID 651749; active means well fitted activation curve with a large enough effect in the signal ratio; inconclusive means small, poorly fitted or top-dose-only effect, or a change in a side signal; the % refers to the signal ratio; further: potency means the concentration at half of the fitted maximal effect); conditions: NF-kB-bla ME-180 cells, beta-lactamase FRET ratio, 16 h; activation: stronger effect = higher value
# In short: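 Screening used 2,000 ME-180 reporter cells per well exposed to pinned compound (23 nL) or DMSO; after 16 hr at 37C, beta-lactamase expression under NF-kB control was assessed through FRET.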
# [12] = biological target: Peroxisome proliferator-activated receptor gamma (Homo sapiens) (UniProt P37231); assay: qHTS assay for small molecule antagonists of peroxisome proliferator-activated receptor gamma signaling (AID 588537; active means well fitted inhibition curve with a large enough effect in the signal ratio, with a control signal flat, not every such curve was filed as active; inconclusive means small, poorly fitted or top-dose-only effect, or effect the other way, or a change in a side signal; the % refers to the signal ratio;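 further: reporter cells co-stimulated with 50 nM rosiglitazone agonist during compound treatment; % of control where 0% means no effect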); conditions: HEK293 PPARg-UAS-bla, beta-lactamase ratio, antagonist mode; at 76.8 µM (top of the series)
# In short: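 We seeded GeneBLAzer HEK293 reporter cells at 3000 per well, allowed 6-6.5 h attachment at 37 C, then co-treated with test compound titrations and 50 nM rosiglitazone overnight (16 h). Inhibition was quantified from 460/530 nm emission ratios.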
# [13] = Cell Viability - LYMP2-019 (AID 973);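 further: 0% = DMSO alone and full effect = 92 µM tetraoctylammonium bromide; nearly all actives have a fitted effect of over 55% in size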
# In short: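 Human lymphoblastoid LYMP2-019 cells (2500/well) preincubated 5 h at 37 C, then treated 24 h at 37 C in complete medium. Viability by CellTiter-Glo ATP luminescence after 30 min at room temperature; AC50 from Hill fits.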
# [14] = Cell Viability - LYMP2-006 (AID 978); further: on the % scale 0 is the no-effect control and ±100 the full control effect; nearly all actives have a fitted effect of over 60% in size
# In short: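 Concentration-dependent loss of intracellular ATP in a human lymphoblastoid line after 24 hr treatment at 37 C was measured by CellTiter-Glo luminescence, with AC50 values obtained from standard Hill-equation modelling.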
# [15] = Cell Viability - LYMP2-007 (AID 979);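 further: potency means the concentration at half of the fitted maximal effect; cells exposed to compound for 24 h before reading; nearly all actives have a fitted effect of over 60% in size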
# In short: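 Human lymphoblastoid LYMP2-007 cells (2500/well) preincubated 5 h at 37 C, then treated 24 h at 37 C in complete medium. Viability by CellTiter-Glo ATP luminescence after 30 min at room temperature; AC50 from Hill fits.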
# [16] = Cell Viability - LYMP2-012 (AID 982);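 further: cellular ATP by luciferase luminescence where a drop means cytotoxicity; cells exposed to compound for one day before reading; 0% = DMSO only and full loss = 92 µM tetraoctylammonium bromide; nearly all actives have a fitted effect of over 55% in size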
# [17] = Cell Viability - LYMP2-010 (AID 981); further: on the % scale 0 is the no-effect control and ±100 the full control effect; nearly all actives have a fitted effect of over 55% in size
# In short: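 Human lymphoblastoid LYMP2-010 cells (2500/well) treated 24 h at 37 C in complete medium; viability read as intracellular ATP by CellTiter-Glo luminescence. AC50 from Hill fits of concentration-response data; tetraoctylammonium bromide positive control.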
# [18] = Cell Viability - LYMP2-016 (AID 984); conditions: LYMP2-016 lymphoblastoid cell viability, qHTS; activity change, negative = cytotoxicity: at 92.2 µM (top of the series)
# In short: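 Acute toxicity in a Coriell human lymphoblastoid line is scored as loss of intracellular ATP over 24 h of treatment in complete medium. CellTiter-Glo signal is fitted across concentrations with the Hill equation to give AC50.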
# [19] = Cell Viability - LYMP2-020 (AID 986)
# In short: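 Human lymphoblastoid LYMP2-020 cells (2500/well) preincubated 5 h at 37 C, then treated 24 h at 37 C. Viability measured as intracellular ATP by CellTiter-Glo luminescence after 30 min at room temperature; AC50 from Hill fits.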
# [20] = biological target: Tumor necrosis factor (Homo sapiens) (UniProt P01375); assay: qHTS assay to identify small molecules that stimulate Tumor Necrosis Factor-alpha (TNF-alpha) secretion (AID 651757; active means well fitted curve in the direction sought with a large enough effect in the signal ratio; inconclusive means small, poorly fitted or top-dose-only effect, or a change in a side signal; inactive means no such curve, though single readings can be large or run the other way; the % refers to the signal ratio; further: 0% is about no effect); conditions: Human cells, HTRF 665/615 ratio; activation (TNF-alpha secretion): at 92.2 µM (top of the series)
# In short: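 THP-1 cells (3000/well) exposed to compounds 17 hrs at 37 C. Secreted TNF-alpha detected by HTRF with cryptate- and XL665-labeled anti-TNF-alpha antibodies after 3 hr at room temperature.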
# [21] = biological target: Voltage-gated inwardly rectifying potassium channel KCNH2 (Homo sapiens) (UniProt Q12809); assay: qHTS Assay for Small Molecule Inhibitors of the Human hERG Channel Activity (AID 588834);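 further: top concentration of the series differs between compounds; on the % scale 0 is the no-effect control and ±100 the full control effect; lower thallium flux fluorescence means stronger hERG block; nearly all actives have a fitted effect of over 50% in size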
# In short: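 Measured: FluxOR fluorescence after thallium stimulation in U2OS cells transduced with hERG by baculovirus. Compounds pre-incubated around 10 min; medium Opti-MEM with 2% FCS. AC50 from Hill equation.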
# [22] = qHTS for Inhibitors of the vitamin D receptor (VDR): Hit Validation using a Texas Red Assay (AID 602201); further: potency means the concentration at half of the fitted maximal effect
# In short: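 Fluorescence polarization (Ex 595/Em 615 nm) of Texas Red (7 nM) with 1.5 uM VDR-LBD and LG19078 (final concentrations). Compounds were incubated for 2 hours at room temperature.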
# [23] = S16 Schwann cell PMP22 intronic element firefly luciferase assay (AID 624032); further: potency means the concentration at half of the fitted maximal effect; nearly all actives have a fitted effect of over 30% in size
# In short: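 Rat S16 Schwann cells stably carrying a PMP22 intronic element-driven Fluc reporter were seeded overnight, then exposed to compounds for 24 h at 37 °C. Luminescence was normalized to PTC124 (positive control) and DMSO (0% activity).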
# [24] = biological target: DNA polymerase eta (Homo sapiens) (UniProt Q9Y253); assay: qHTS for Inhibitors of Polymerase Eta: Confirmatory Assay for Cherry-picked Compounds (AID 720502); conditions: Pol eta primer extension, TAMRA/BHQ fluorescence, 10 min; further: potency means the concentration at half of the fitted maximal effect
# In short: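 The reaction starts with 50 nM final labeled DNA substrate added to Pol eta (10 nM) that had sat with compound for 15 min. TAMRA emission at 598 nm is read at 0 and 10 min.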
# [25] = biological target: Arylsulfatase A (Homo sapiens) (UniProt P15289); assay: qHTS screen for enhancers of Arylsulfatase A (ASA1): LOPAC Validation Assay (AID 720538); further: potency means the concentration at half of the fitted maximal effect
# In short: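 First, ASA-I179S fibroblasts from an MLD patient adhered for 6 hrs. Next, compounds were added for 48h. Then pNCS substrate (0.5mM final) with lysis buffer reacted 14h at room temperature before NaOH stop and fluorescence measurement.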
compound,measurement,setting,value
C=CC(=O)OCC(CO)(COC(=O)C=C)COC(=O)C=C,Potency,[1],"inconclusive: 5.01 µM [cytotoxic, full curve]"
same,Potency,[2],"inconclusive: 2.51 µM [cytotoxic, full curve, poor fit]"
same,Potency,[3],"inconclusive: 7.94 µM [cytotoxic, full curve, poor fit]"
same,Potency,[4],active: 3.98 µM
same,Potency,[5],active: 5.01 µM
same,Potency,[6],"inconclusive: 35.5 µM [side channel, rising, partial curve]"
same,"activity change, negative = inhibition",[6],inconclusive: -101%
same,Potency,[7],"inconclusive: 12.6 µM [cytotoxic, partial curve, poor fit]"
CC/C(=C(\c1ccccc1)c1ccc(OCCN(C)C)cc1)c1ccc(O)cc1,Potency,[8],"inconclusive: 25.1 µM [cytotoxic, partial curve]"
same,Potency,[9],active: 50.1 µM
same,Potency,[10],"inconclusive: 79.4 µM [cytotoxic, partial curve, poor fit]"
same,Potency,[3],active: 50.1 µM
same,Potency,[4],"inconclusive: 50.1 µM [cytotoxic, partial curve]"
same,Potency,[6],"inconclusive: 44.7 µM [inhibitor, partial curve, poor fit]"
same,Potency,[11],"inconclusive: 50.1 µM [activator, partial curve]"
CC(C)(C)OO,Potency,[2],"inconclusive: 79.4 µM [rising, single point]"
same,"activity, negative = inhibition",[12],inactive: 9%
C=CC(=O)OCCN(C)C,Potency,[13],inactive
CCCCCCCC(=O)Cl,Potency,[14],inactive
CCCC[N+](=O)[O-],Potency,[15],"inconclusive: 39.8 µM [cytotoxic, partial curve]"
same,Potency,[16],inactive
same,max response,[7],inactive: -1.65%
C#CCO,Potency,[17],inactive
C=CCCl,Potency,[18],inactive
same,Potency,[19],inactive
same,Potency,[20],inactive
O=C(Cl)c1ccccc1F,Potency,[21],inactive
C[C@H]1COC2=C1C(=O)C(=O)c1c2ccc2c1CCCC2(C)C,Potency,[22],"inconclusive: 15.8 µM [inhibitor, partial curve] and inconclusive: 31.6 µM [inhibitor, single point]"
CCCCCCCCCCCCCC(=O)OCC(COP(=O)([O-])OCC[N+](C)(C)C)OC(=O)CCCCCCCCCCCCC (stereo unspecified),Potency,[23],"inconclusive: 2.87 µM [inhibitor, partial curve]"
CC(Cc1ccc(O)cc1)NCC(O)c1ccc(O)c(O)c1 (stereo unspecified),Potency,[24],active: 12 µM
C[N+]1(C)C2CC(OC(=O)[C@H](CO)c3ccccc3)CC1C1OC12 (stereo partly specified),Potency,[25],"inactive and inconclusive: 1.69 µM [activator, full curve]"
